Data on six molecules can be found in publication PMC6716676, “Chemokine signaling links cell-cycle progression and cilia formation for left–right symmetry breaking” (PLoS Biology, 2019).

Results are given in words; binding and its absence hold for the method and conditions named. For part of these data: In cells and extracts the contact can be indirect. Some results given as binding are weak or reduced against the parent protein; the word gives no strength. Where a sequence is shown, tags or fusion partners need not be part of it.

One test has as its target T1, GST-zFoxj1a (zebrafish) (UniProt F1QDF8).
T1 sequence: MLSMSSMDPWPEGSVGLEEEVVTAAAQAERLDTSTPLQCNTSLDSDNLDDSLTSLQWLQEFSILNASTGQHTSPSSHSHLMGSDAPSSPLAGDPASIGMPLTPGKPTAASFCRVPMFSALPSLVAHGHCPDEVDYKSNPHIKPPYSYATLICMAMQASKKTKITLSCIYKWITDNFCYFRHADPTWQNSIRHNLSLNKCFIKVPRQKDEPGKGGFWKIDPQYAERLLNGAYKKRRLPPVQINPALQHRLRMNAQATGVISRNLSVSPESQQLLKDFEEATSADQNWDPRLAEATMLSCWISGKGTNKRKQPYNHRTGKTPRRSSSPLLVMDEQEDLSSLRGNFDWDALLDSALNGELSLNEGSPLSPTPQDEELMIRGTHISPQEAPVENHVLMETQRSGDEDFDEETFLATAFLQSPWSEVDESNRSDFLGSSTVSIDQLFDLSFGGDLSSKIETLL
The test is described as follows: pull-down; GST-Foxj1a (or GST) immobilised on Glutathione-Sepharose 4B beads, incubated with the purified protein at 4 °C for 3 hours; western blot; both purified. In general terms: In western blotting, separated proteins are transferred to a membrane and probed.

Test [1] addresses T2, Flag-Psmd4b (proteasome 26S subunit, non-ATPase 4b), expressed in HEK293T (zebrafish) (UniProt Q561Y1).
T2 sequence: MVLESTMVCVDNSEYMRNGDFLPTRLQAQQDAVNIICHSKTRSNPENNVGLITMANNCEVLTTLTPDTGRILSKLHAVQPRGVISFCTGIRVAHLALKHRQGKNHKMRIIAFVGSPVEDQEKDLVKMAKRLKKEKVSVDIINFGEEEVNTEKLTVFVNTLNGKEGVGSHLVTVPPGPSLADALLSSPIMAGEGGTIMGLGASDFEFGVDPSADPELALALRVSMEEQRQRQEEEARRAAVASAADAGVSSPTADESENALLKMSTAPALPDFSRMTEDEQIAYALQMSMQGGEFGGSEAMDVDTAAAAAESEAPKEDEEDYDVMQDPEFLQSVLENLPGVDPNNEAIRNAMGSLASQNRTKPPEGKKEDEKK
Briefly: co-IP; HEK293T cells transfected with the tagged proteins, in some panels MG132 for 5 hours prior to harvest or CDK4 / CDK4-K38M co-expressed; TNE lysis buffer, anti-Flag-agarose or protein A-Sepharose beads, 4 °C for 4 hours.

The target of test [2] is Flag-zFoxj1a-T102D (zebrafish) (UniProt F1QDF8). The description is as above.
In test [3] the target is T3, Flag-Psmd4b expressed in zebrafish embryos (zebrafish) (UniProt Q561Y1).
T3 sequence: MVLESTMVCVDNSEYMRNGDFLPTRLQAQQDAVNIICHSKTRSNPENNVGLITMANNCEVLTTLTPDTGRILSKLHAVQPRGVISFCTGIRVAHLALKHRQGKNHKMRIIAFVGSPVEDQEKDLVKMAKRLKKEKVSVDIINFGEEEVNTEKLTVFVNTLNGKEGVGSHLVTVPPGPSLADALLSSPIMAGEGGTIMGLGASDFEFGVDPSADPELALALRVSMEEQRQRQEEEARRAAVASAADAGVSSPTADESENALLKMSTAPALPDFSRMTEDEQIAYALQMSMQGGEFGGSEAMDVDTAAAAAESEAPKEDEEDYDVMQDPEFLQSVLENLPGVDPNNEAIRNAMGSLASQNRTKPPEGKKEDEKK
The test is described as follows: co-IP; lysates of bud-stage zebrafish embryos expressing the tagged partner from injected mRNA; TNE lysis buffer (10 mM Tris-HCl pH 7.5, 150 mM NaCl, 2 mM EDTA, 0.5% Nonidet P-40), 4 °C for 4 hours; endogenous zFoxj1a detected by blot.

The target in test [4] is Flag-zFoxj1a (zebrafish forkhead box j1a) (zebrafish) (UniProt F1QDF8). Briefly: co-IP; HEK293T cells transfected with the tagged proteins, in some panels MG132 for 5 hours prior to harvest or CDK4 / CDK4-K38M co-expressed; TNE lysis buffer, anti-Flag-agarose or protein A-Sepharose beads, 4 °C for 4 hours.

B1: recombinant Flag-Psmd4b (protein, UniProt Q561Y1 1-372)
chain: MVLESTMVCVDNSEYMRNGDFLPTRLQAQQDAVNIICHSKTRSNPENNVGLITMANNCEVLTTLTPDTGRILSKLHAVQPRGVISFCTGIRVAHLALKHRQGKNHKMRIIAFVGSPVEDQEKDLVKMAKRLKKEKVSVDIINFGEEEVNTEKLTVFVNTLNGKEGVGSHLVTVPPGPSLADALLSSPIMAGEGGTIMGLGASDFEFGVDPSADPELALALRVSMEEQRQRQEEEARRAAVASAADAGVSSPTADESENALLKMSTAPALPDFSRMTEDEQIAYALQMSMQGGEFGGSEAMDVDTAAAAAESEAPKEDEEDYDVMQDPEFLQSVLENLPGVDPNNEAIRNAMGSLASQNRTKPPEGKKEDEKK
In the case of B1, in the test with GST-zFoxj1a (zebrafish), the binding entry is on record as “binds”.

B2: zFoxj1a-T102A co-expressed with Psmd4b (protein, UniProt F1QDF8 1-458)
chain: MLSMSSMDPWPEGSVGLEEEVVTAAAQAERLDTSTPLQCNTSLDSDNLDDSLTSLQWLQEFSILNASTGQHTSPSSHSHLMGSDAPSSPLAGDPASIGMPLAPGKPTAASFCRVPMFSALPSLVAHGHCPDEVDYKSNPHIKPPYSYATLICMAMQASKKTKITLSCIYKWITDNFCYFRHADPTWQNSIRHNLSLNKCFIKVPRQKDEPGKGGFWKIDPQYAERLLNGAYKKRRLPPVQINPALQHRLRMNAQATGVISRNLSVSPESQQLLKDFEEATSADQNWDPRLAEATMLSCWISGKGTNKRKQPYNHRTGKTPRRSSSPLLVMDEQEDLSSLRGNFDWDALLDSALNGELSLNEGSPLSPTPQDEELMIRGTHISPQEAPVENHVLMETQRSGDEDFDEETFLATAFLQSPWSEVDESNRSDFLGSSTVSIDQLFDLSFGGDLSSKIETLL
Take B2: the binding entry in test [1] is listed as “binds”.

B3: zFoxj1a overexpressed together with Flag-Psmd4b (protein, UniProt F1QDF8 1-458)
chain: MLSMSSMDPWPEGSVGLEEEVVTAAAQAERLDTSTPLQCNTSLDSDNLDDSLTSLQWLQEFSILNASTGQHTSPSSHSHLMGSDAPSSPLAGDPASIGMPLTPGKPTAASFCRVPMFSALPSLVAHGHCPDEVDYKSNPHIKPPYSYATLICMAMQASKKTKITLSCIYKWITDNFCYFRHADPTWQNSIRHNLSLNKCFIKVPRQKDEPGKGGFWKIDPQYAERLLNGAYKKRRLPPVQINPALQHRLRMNAQATGVISRNLSVSPESQQLLKDFEEATSADQNWDPRLAEATMLSCWISGKGTNKRKQPYNHRTGKTPRRSSSPLLVMDEQEDLSSLRGNFDWDALLDSALNGELSLNEGSPLSPTPQDEELMIRGTHISPQEAPVENHVLMETQRSGDEDFDEETFLATAFLQSPWSEVDESNRSDFLGSSTVSIDQLFDLSFGGDLSSKIETLL
Consider B3, for which the binding result in test [1] is on record as “binds”.

B4: Flag-zFoxj1a-T102D (natural protein, zebrafish, UniProt F1QDF8 1-458, looked up)
chain: MLSMSSMDPWPEGSVGLEEEVVTAAAQAERLDTSTPLQCNTSLDSDNLDDSLTSLQWLQEFSILNASTGQHTSPSSHSHLMGSDAPSSPLAGDPASIGMPLDPGKPTAASFCRVPMFSALPSLVAHGHCPDEVDYKSNPHIKPPYSYATLICMAMQASKKTKITLSCIYKWITDNFCYFRHADPTWQNSIRHNLSLNKCFIKVPRQKDEPGKGGFWKIDPQYAERLLNGAYKKRRLPPVQINPALQHRLRMNAQATGVISRNLSVSPESQQLLKDFEEATSADQNWDPRLAEATMLSCWISGKGTNKRKQPYNHRTGKTPRRSSSPLLVMDEQEDLSSLRGNFDWDALLDSALNGELSLNEGSPLSPTPQDEELMIRGTHISPQEAPVENHVLMETQRSGDEDFDEETFLATAFLQSPWSEVDESNRSDFLGSSTVSIDQLFDLSFGGDLSSKIETLL
notes: forkhead box j1a (Foxj1a), zebrafish; In the self-association co-IP the second copy was differently tagged (HA); also called phospho-mimicking mutant of zFoxj1a; T102D mutant; source: HEK293T, transfected, in lysate
Turning to B4, in test [2], the binding entry is “binds”.

B5: endogenous zFoxj1a (protein, UniProt F1QDF8 1-458)
chain: MLSMSSMDPWPEGSVGLEEEVVTAAAQAERLDTSTPLQCNTSLDSDNLDDSLTSLQWLQEFSILNASTGQHTSPSSHSHLMGSDAPSSPLAGDPASIGMPLTPGKPTAASFCRVPMFSALPSLVAHGHCPDEVDYKSNPHIKPPYSYATLICMAMQASKKTKITLSCIYKWITDNFCYFRHADPTWQNSIRHNLSLNKCFIKVPRQKDEPGKGGFWKIDPQYAERLLNGAYKKRRLPPVQINPALQHRLRMNAQATGVISRNLSVSPESQQLLKDFEEATSADQNWDPRLAEATMLSCWISGKGTNKRKQPYNHRTGKTPRRSSSPLLVMDEQEDLSSLRGNFDWDALLDSALNGELSLNEGSPLSPTPQDEELMIRGTHISPQEAPVENHVLMETQRSGDEDFDEETFLATAFLQSPWSEVDESNRSDFLGSSTVSIDQLFDLSFGGDLSSKIETLL
As to B5, the binding entry in test [3] is recorded as “binds”.

B6: Flag-zFoxj1a (zebrafish forkhead box j1a) (natural protein, UniProt F1QDF8 1-458, looked up)
chain: MLSMSSMDPWPEGSVGLEEEVVTAAAQAERLDTSTPLQCNTSLDSDNLDDSLTSLQWLQEFSILNASTGQHTSPSSHSHLMGSDAPSSPLAGDPASIGMPLTPGKPTAASFCRVPMFSALPSLVAHGHCPDEVDYKSNPHIKPPYSYATLICMAMQASKKTKITLSCIYKWITDNFCYFRHADPTWQNSIRHNLSLNKCFIKVPRQKDEPGKGGFWKIDPQYAERLLNGAYKKRRLPPVQINPALQHRLRMNAQATGVISRNLSVSPESQQLLKDFEEATSADQNWDPRLAEATMLSCWISGKGTNKRKQPYNHRTGKTPRRSSSPLLVMDEQEDLSSLRGNFDWDALLDSALNGELSLNEGSPLSPTPQDEELMIRGTHISPQEAPVENHVLMETQRSGDEDFDEETFLATAFLQSPWSEVDESNRSDFLGSSTVSIDQLFDLSFGGDLSSKIETLL
notes: forkhead box j1a (Foxj1a), zebrafish; In the self-association co-IP the second copy carried an HA tag instead of Flag (HA-zFoxj1a); also called Flag-tagged zFoxj1a; wild-type zFoxj1a; source: HEK293T, transfected, in lysate
Turning to B6, the binding result in test [4] is recorded as “binds”.
